{"source": "patent US8222267B2", "about": "(priority 2009, dated 2012)", "assay": "Pharmacokinetics after single oral co-administered dose of morphine and oxycodone (about 3:2) in healthy subjects", "settings": "for AUC0-∞ (dose adjusted) / Cmax: healthy subjects, n = 18; for Cmax: human, plasma, po", "protocol": "Values for the observed maximum plasma concentration (Cmax), total area under the plasma concentration-time curve (AUC0-∞) and the time to maximum plasma concentration (Tmax) were determined.", "key": {"[1]": {"settings": "single oral co-administered dose morphine/oxycodone 3 mg/2 mg"}, "[2]": {"settings": "single oral co-administered dose morphine/oxycodone 12 mg/8 mg"}}, "data": [{"smiles": "CN1CC[C@]23c4c5ccc(O)c4O[C@H]2[C@@H](O)C=C[C@H]3[C@H]1C5", "note": "[Morphine, morphine]", "values": [{"measurement": "AUC0-∞ (dose adjusted)", "setting": "[1]", "value": 4.24, "unit": "ng·h/mL/mg"}, {"measurement": "AUC0-∞ (dose adjusted)", "setting": "[2]", "value": 4.55, "unit": "ng·h/mL/mg"}, {"measurement": "Cmax", "setting": "[1]", "value": 3.9, "unit": "ng/mL"}, {"measurement": "Cmax", "setting": "[2]", "value": 16.1, "unit": "ng/mL"}, {"measurement": "Dose proportionality of plasma levels", "setting": "single-dose combination, 3 mg/2 mg to 12 mg/8 mg dose range, dose-normalized Cmax and AUC0-∞ within 80-125% limits", "value": "increase linearly in a dose-proportionate manner"}]}]}
